Measurements as given in US8445240B2, “Termite enzymes and uses thereof for in vitro conversion of lignin-containing materials to fermentable products” (University of Florida Research Foundation, Inc., priority 2009, dated 2013).

Assay: Colorimetric β-1,4-endoglucanase assay of Cell-1 on CMC
Assay type: biochemical
Conditions: BEVS-expressed
Method: Colorimetric β-1,4-endoglucanase enzyme assays: Six total substrates were tested: CMC (carboxymethyl cellulose), pNPG (p-nitrophenyl-beta-D-glucopyranoside), pNPC2 (p-nitrophenyl-beta-D-cellobioside), pNPC3 (p-nitrophenyl-beta-D-cellotrioside), pNPC4 (p-nitrophenyl-beta-D-cellotetraoside), and pNPC5 (p-nitrophenyl-beta-D-cellopentaoside). All assay methods were carried out under optimal conditions (Zhou et al., (2007) Gene 395:29-39).
(FIG. 7). For subsequent characterizations, the 1.5% CMC concentration was used. pH studies were performed by dissolving 1.5% CMC in two different buffer systems: 100 mM sodium acetate (pH 3-6.5) and 100 mM sodium phosphate (pH 7-10.5), as shown in FIG. 8. […] Temperature-cofactor studies were performed using 1.5% CMC dissolved in 100 mM sodium phosphate (pH 7) alone, plus 4 mM EDTA (final concentration), or plus 10 mM calcium chloride (final concentration). Pre-incubations took place for 0-5 days at 25° C. or 0-60 min at 60° C. or 70° C.; reactions were terminated by the combination of adding stop solution and boiling for 10 min, and then assays were read at 25° C. (FIG. 9).

B1: Cell-1: host-derived β-1,4-endoglucanase (GHF9) from Reticulitermes flavipes, SEQ ID NO.: 2; recombinant, BEVS or E. coli expressed (protein)
chain: MKVFVCLLSALALCQAAYDYKTVLSNSLLFYEAQRSGKLPSDQKVTWRKDSALNDKGQKGEDLTGGYYDAGDFVKFGFPMAYTVTVLAWGVIDYESAYSAAGALDSGRKALKYGTDYFLKAHTAANEFYGQVGQGDVDHAYWGRPEDMTMSRPAYKIDTSKPGSDLAAETAAALAATAIAYKSADATYSNNLITHAKQLFDFANNYRGKYSDSITDAKNFYASGDYKDELVWAAAWLYRATNDNTYLTKAESLYNEFGLGNWNGAFNWDNKISGVQVLLAKLTSKQAYKDKVQGYVDYLISSQKKTPKGLVYIDQWGTLRHAANSALIALQAADLGINAATYRAYAKKQIDYALGDGGRSYVVGFGTNPPVRPHHRSSSCPDAPAVCDWNTYNSAGPNAHVLTGALVGGPDSNDSYTDARSDYISNEVATDYNAGFQSAVAGLLKAGV
modifications: Reticulitermes flavipes; amino acid sequence Beta-1,4-endoglucanase (Cell-1)
notes: recombinant, BEVS or E. coli expressed
pH of maximal/optimal CMC activity (1.5% CMC, listed as BEVS-expressed Cell-1): around neutral pH
temperature of maximal CMC activity (sodium phosphate buffer pH 7): 50-60 °C
